Assay results taken from PubChem BioAssay AID540256 (National Center for Advancing Translational Sciences (NCATS), 2011).
The whole screen tested about 300,000 compounds, of which about 3,700 (1.2%) were called active. This list was built around the results that the source calls inconclusive (neither active nor inactive); the mix of calls is not that of the screen. The call rests on the fitted dose curve; tested in HEK293 cells. A potency beside an inconclusive call is a rough fit, not a confirmed value.

experiment: qHTS for Inhibitors of binding or entry into cells for Lassa Virus; settings: Lassa virus pseudotype entry inhibition, cell reporter; series mostly up to 37.9 µM; further: nearly all actives have a fitted effect of over 50% in size
Potency means the concentration at half of the fitted maximal effect.

Row | SMILES | Potency
1 | O=C(Nc1cc(F)ccc1F)N1CCC(CN2CCOCC2)CC1 | inconclusive: 0.501 µM [activator, full curve, poor fit]
2 | CN1CCN(c2ccccc2NC(=O)c2ccc(-c3ccccc3)cc2)CC1 | inconclusive: 35.5 µM [inhibitor, single point]
3 | CCOC(=O)c1c(NC(=O)CCS(=O)(=O)c2ccccc2)sc2c1CC(C)(C)NC2(C)C | inconclusive: 35.5 µM [inhibitor, single point]
4 | CC1=C(C(=O)Nc2ccc(Cl)cc2)C(c2ccccc2C)n2ncc(C(=O)Nc3ccc(C)cc3)c2N1 (stereo unspecified) | inconclusive: 35.5 µM [inhibitor, single point]
5 | COC(CNC(=O)c1cn(C)c2ccc(S(=O)(=O)N(C)C3CCCCC3)cc2c1=O)OC | inconclusive: 1 µM [inhibitor, partial curve, poor fit]
6 | O=C(O)c1cc2c(o1)CCC/C2=N\O | inactive
7 | O=S(=O)(C/C(=C/CO)S(=O)(=O)c1ccccc1)c1ccccc1 | inconclusive: 14.6 µM [inhibitor, partial curve, poor fit]
8 | CC(=O)Nc1ccc(NC(=O)C(C)OC(=O)CCc2c[nH]c3ccccc23)cc1 (stereo unspecified) | inactive
9 | COc1cc2c(cc1OC)C(c1ccccc1)=NCC2 | inconclusive: 0.112 µM [inhibitor, partial curve, poor fit]
10 | CCc1nonc1NC(=O)c1oc2ccc(F)cc2c1C | inconclusive: 2.82 µM [activator, single point]
11 | COc1cccc(NC(=O)Nc2nnc(-c3ccccc3SCc3ccccc3)s2)c1 | inconclusive: 35.5 µM [inhibitor, single point]
12 | O=C(/C=C/c1ccccc1)Nc1ccc2c(c1)OCCO2 | inconclusive: 1.58 µM [inhibitor, partial curve, poor fit]
13 | O=C(Nc1cccc(Cl)c1)Nc1ccc(Br)cc1F | inconclusive: 35.5 µM [inhibitor, single point]
14 | COc1ccc(-c2nnc(SC)nc2-c2ccc(OC)c([N+](=O)[O-])c2)cc1[N+](=O)[O-] | inconclusive: 5.01 µM [activator, single point]
15 | C=CCOCCN1C(=O)C2C(c3ccccc3)C=CC(c3ccccc3)C2C1=O (stereo unspecified) | inactive
16 | Nc1nc(SCc2ccccc2[N+](=O)[O-])c2ncn(Cc3ccccc3)c2n1 | inactive
17 | C=CCSC1=C(C#N)C(c2ccccc2Cl)C(C(=O)c2cccs2)C(O)(C(F)(F)F)N1 (stereo unspecified) | inactive
18 | CCOc1ccc(-c2cnc(NCc3ccc(C(F)(F)F)cc3)n2C)cc1 | inconclusive: 15.8 µM [inhibitor, single point]
19 | CN(C)S(=O)(=O)N1CCC(Oc2cccc(C(=O)NC3CCCCCC3)c2)CC1 | inconclusive: 7.08 µM [inhibitor, partial curve]
20 | COc1ccc(C(=O)CC2(O)C(=O)Nc3c(C)cccc32)c(OC)c1OC (stereo unspecified) | inconclusive: 2.82 µM [activator, full curve]
21 | O=C(Nc1cc(S(=O)(=O)N2CCCCC2)ccc1Cl)C1COc2ccccc2O1 (stereo unspecified) | inactive

Part of the list above in order of molecular weight, largest number first:
Row | SMILES | Potency
3 | CCOC(=O)c1c(NC(=O)CCS(=O)(=O)c2ccccc2)sc2c1CC(C)(C)NC2(C)C | inconclusive: 35.5 µM [inhibitor, single point]
5 | COC(CNC(=O)c1cn(C)c2ccc(S(=O)(=O)N(C)C3CCCCC3)cc2c1=O)OC | inconclusive: 1 µM [inhibitor, partial curve, poor fit]
21 | O=C(Nc1cc(S(=O)(=O)N2CCCCC2)ccc1Cl)C1COc2ccccc2O1 (stereo unspecified) | inactive
8 | CC(=O)Nc1ccc(NC(=O)C(C)OC(=O)CCc2c[nH]c3ccccc23)cc1 (stereo unspecified) | inactive
15 | C=CCOCCN1C(=O)C2C(c3ccccc3)C=CC(c3ccccc3)C2C1=O (stereo unspecified) | inactive
18 | CCOc1ccc(-c2cnc(NCc3ccc(C(F)(F)F)cc3)n2C)cc1 | inconclusive: 15.8 µM [inhibitor, single point]
20 | COc1ccc(C(=O)CC2(O)C(=O)Nc3c(C)cccc32)c(OC)c1OC (stereo unspecified) | inconclusive: 2.82 µM [activator, full curve]
13 | O=C(Nc1cccc(Cl)c1)Nc1ccc(Br)cc1F | inconclusive: 35.5 µM [inhibitor, single point]
1 | O=C(Nc1cc(F)ccc1F)N1CCC(CN2CCOCC2)CC1 | inconclusive: 0.501 µM [activator, full curve, poor fit]
12 | O=C(/C=C/c1ccccc1)Nc1ccc2c(c1)OCCO2 | inconclusive: 1.58 µM [inhibitor, partial curve, poor fit]
9 | COc1cc2c(cc1OC)C(c1ccccc1)=NCC2 | inconclusive: 0.112 µM [inhibitor, partial curve, poor fit]
6 | O=C(O)c1cc2c(o1)CCC/C2=N\O | inactive

Following part

Row | SMILES | Potency
22 | CCOc1ccc(-n2c(SCC(=O)Nc3cccc(Cl)c3)nc3c(oc4ccccc43)c2=O)cc1 | inconclusive: 12.6 µM [activator, partial curve, poor fit]
23 | O=C(COC(=O)CCc1nc2ccccc2s1)NCc1ccco1 | inconclusive: 11.2 µM [activator, single point]
24 | c1ccc(-c2cc(-c3ccccc3)[n+](-c3ccccc3)c(-c3ccccc3)c2)cc1 | inconclusive: 7.08 µM [inhibitor, full curve, poor fit]
25 | O=C1c2ccccc2C(=O)N1CCc1c[nH]c2ccccc12 | inconclusive: 29.1 µM [inhibitor, single point]
26 | CC(Sc1nnc2c(n1)C1CCC2(C)C1(C)C)C(=O)Nc1ccccc1 (stereo unspecified) | inconclusive: 7.08 µM [inhibitor, partial curve]
27 | CC(C)(C)OC(=O)C(C1NC(C(=O)O)C(C)(C)S1)N1C(=O)c2ccccc2C1=O (stereo unspecified) | inconclusive: 35.5 µM [inhibitor, single point]
28 | Cc1nn2c(NCc3cccnc3)c3c(nc2c1-c1ccccc1)CCC3 | inconclusive: 22.4 µM [inhibitor, partial curve, poor fit]
29 | Cc1cccc(OCCCCn2c(C3CC(=O)N(c4ccccc4Cl)C3)nc3ccccc32)c1 (stereo unspecified) | inconclusive: 10 µM [inhibitor, partial curve, poor fit]
30 | O=C(CCCc1ccccc1)NCc1ccccc1Cl | inactive
31 | Cc1ccsc1-c1nc(C(N)=O)c2[nH]c(=O)n(-c3ccc(Cl)cc3)c2n1 | inconclusive: 6.51 µM [inhibitor, single point]
32 | COc1ccc(S(=O)(=O)NCCc2sc(C)nc2C)cc1F | inactive
33 | CCOC(=O)c1c(C)[nH]c(C(=O)C(C)OC(=O)c2cccc(OCc3c(C)noc3C)c2)c1C (stereo unspecified) | inconclusive: 10 µM [inhibitor, partial curve, poor fit]
34 | Cc1ccc(CSCC(=O)N2CCN(Cc3ccc4c(c3)OCO4)CC2)cc1 | inconclusive: 22.4 µM [inhibitor, single point]
35 | CCN(c1cccc(C)c1)S(=O)(=O)c1nnc(NC(=O)c2cccs2)s1 | active: 10 µM
36 | N/C(=N\NS(=O)(=O)c1ccccc1)c1ccccn1 | inconclusive: 3.16 µM [activator, single point]
37 | O=C(/C=C/c1ccc2c(c1)OCO2)Nc1nc2ccccc2s1 | inconclusive: 11.2 µM [inhibitor, partial curve, poor fit]
38 | Cc1nonc1N1CCN(Cc2cn[nH]c2-c2ccc3c(c2)OCO3)CC1 | inactive
39 | CCOc1cc(N2CCOCC2)c(OCC)cc1NCC(=O)N1CCN(Cc2ccccc2)CC1 | inconclusive: 29.1 µM [inhibitor, single point]
40 | Cc1cccc(Cn2c(CN3CCC(C(=O)NCCc4ccccc4)CC3)cc3ccccc32)c1 | inconclusive: 35.5 µM [inhibitor, single point]
41 | CCCCn1c(-c2ccc(S(=O)(=O)N3CCOCC3)cc2)csc1=Nc1ccccc1 | inactive
